The target of the test is HSV-1 origin-binding protein (OBP), encoded by the UL9 gene (herpes simplex virus 1 (HSV-1)) (UniProt P10193). The experiment in a line: condition: only in complex with mini-OriS* (hairpin with a single-stranded 3′ dT10 tail); cryo-EM structure; OBP + mini-OriS* (hairpin with single-stranded 3' dT10 tail), monomer dataset; same reconstitution; 20° tilted stage; preferred particle orientation; both purified.

Chains of the proteins cited; added tags and fusions are not shown.
UniProt P10193: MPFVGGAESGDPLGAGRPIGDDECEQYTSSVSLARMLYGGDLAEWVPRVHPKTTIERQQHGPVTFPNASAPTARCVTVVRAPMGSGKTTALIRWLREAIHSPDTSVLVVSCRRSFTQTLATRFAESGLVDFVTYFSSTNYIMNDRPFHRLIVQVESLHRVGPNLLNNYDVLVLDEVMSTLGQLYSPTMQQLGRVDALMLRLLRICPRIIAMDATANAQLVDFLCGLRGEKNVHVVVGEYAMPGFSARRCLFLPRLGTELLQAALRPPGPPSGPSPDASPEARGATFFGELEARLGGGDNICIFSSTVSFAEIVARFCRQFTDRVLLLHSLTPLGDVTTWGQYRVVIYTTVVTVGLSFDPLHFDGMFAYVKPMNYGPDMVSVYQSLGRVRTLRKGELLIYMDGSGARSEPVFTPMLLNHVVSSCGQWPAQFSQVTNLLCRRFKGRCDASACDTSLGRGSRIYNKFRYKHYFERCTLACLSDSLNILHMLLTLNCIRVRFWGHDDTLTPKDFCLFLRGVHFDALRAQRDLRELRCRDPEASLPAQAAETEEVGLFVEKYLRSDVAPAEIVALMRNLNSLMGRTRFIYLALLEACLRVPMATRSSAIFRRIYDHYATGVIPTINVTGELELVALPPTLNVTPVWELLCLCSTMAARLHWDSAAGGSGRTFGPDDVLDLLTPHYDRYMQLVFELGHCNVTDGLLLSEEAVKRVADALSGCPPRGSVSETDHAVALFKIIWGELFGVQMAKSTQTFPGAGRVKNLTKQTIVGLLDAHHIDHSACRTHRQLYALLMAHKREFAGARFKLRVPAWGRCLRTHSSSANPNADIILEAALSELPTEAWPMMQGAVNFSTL

Data on 1 substance can be found in publication PMC12543377, “https://orcid.org/0000-0003-0166-1786 Gustavsson Emil Data curation Formal analysis Investigation Methodology Project administration Validation Visualization Writing - original draft Writing - review”.

These are yes or no findings as the source states them, for the method shown.

Consider “HSV-1 origin-binding protein (OBP), encoded by the UL9 gene (from UniProt P10193 1-851) (enzyme)”, for which the binding result is recorded as “no binding”.
